The list shows a part of the results. Residues, ends and D or L forms follow the SMILES beside them. *: point of attachment. Cbz = O=C(OCc1ccccc1)*
Columns and labels:
Assay in all cases: log2 fold change, soluble protein after heating vs DMSO (PISA); higher = thermal stabilisation; K562 cells, 10 uM, 30 min; active = over 0.2 and 3.5 SD of the protein, either way, in both replicates (recomputed)
IRAK-1-4 Inhibitor I = compound: C1COCCN1CCN2C3=CC=CC=C3N=C2NC(=O)C4=CC(=CC=C4)[N+](=O)[O-] [IRAK-1-4 Inhibitor I]
Method in brief: (§1)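 K562 cells at 2×10^6 cells/mL were exposed to 10 μM compound for 30 min, then aliquots were heated for 3 min across 48°C-58°C, pooled, and extracted in PBS containing 0.5% NP-40 at 4°C. The supernatant after 21,000xg for 90 min was taken as soluble protein and measured by TMTpro 16plex LC-MS/MS with channel sums equalised. Thermal stability is reported relative to control samples, with values from duplicates. Fold changes are given on a log2 scale.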

By UniProt entry, the sequences of proteins in these tests, tags left out. Where a name states a change or a piece, a line headed by the entry shows the natural chain unless it says otherwise.
UniProt Q9ULH7: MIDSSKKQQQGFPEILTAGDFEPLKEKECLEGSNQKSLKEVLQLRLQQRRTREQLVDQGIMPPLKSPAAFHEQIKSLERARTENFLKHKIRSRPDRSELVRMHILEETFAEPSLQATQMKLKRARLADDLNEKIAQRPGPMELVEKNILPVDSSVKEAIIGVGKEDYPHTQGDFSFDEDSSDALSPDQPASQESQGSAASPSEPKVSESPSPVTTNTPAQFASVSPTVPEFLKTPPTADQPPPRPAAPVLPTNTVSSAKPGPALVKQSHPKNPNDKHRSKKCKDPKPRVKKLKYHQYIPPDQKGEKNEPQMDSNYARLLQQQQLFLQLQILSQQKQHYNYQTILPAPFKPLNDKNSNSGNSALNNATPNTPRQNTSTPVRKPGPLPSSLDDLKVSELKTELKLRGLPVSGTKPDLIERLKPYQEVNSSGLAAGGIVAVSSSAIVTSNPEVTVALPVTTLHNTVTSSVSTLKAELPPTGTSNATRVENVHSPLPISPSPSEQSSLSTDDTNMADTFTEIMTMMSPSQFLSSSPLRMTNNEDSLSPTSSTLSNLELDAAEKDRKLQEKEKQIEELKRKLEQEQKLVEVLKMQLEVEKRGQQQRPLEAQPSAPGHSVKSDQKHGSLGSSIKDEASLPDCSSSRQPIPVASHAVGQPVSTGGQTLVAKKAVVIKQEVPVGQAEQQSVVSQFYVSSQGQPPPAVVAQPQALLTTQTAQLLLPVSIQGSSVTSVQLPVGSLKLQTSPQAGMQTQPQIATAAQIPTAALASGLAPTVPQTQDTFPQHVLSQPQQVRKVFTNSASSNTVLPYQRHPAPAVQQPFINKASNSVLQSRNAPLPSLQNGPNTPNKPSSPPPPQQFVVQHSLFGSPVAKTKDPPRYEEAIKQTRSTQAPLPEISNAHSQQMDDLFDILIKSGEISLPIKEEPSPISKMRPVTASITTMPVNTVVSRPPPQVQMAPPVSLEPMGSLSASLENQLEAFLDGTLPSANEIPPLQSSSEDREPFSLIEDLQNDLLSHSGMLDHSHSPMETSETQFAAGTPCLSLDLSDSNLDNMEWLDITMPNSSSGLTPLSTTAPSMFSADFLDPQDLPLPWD
UniProt O75592: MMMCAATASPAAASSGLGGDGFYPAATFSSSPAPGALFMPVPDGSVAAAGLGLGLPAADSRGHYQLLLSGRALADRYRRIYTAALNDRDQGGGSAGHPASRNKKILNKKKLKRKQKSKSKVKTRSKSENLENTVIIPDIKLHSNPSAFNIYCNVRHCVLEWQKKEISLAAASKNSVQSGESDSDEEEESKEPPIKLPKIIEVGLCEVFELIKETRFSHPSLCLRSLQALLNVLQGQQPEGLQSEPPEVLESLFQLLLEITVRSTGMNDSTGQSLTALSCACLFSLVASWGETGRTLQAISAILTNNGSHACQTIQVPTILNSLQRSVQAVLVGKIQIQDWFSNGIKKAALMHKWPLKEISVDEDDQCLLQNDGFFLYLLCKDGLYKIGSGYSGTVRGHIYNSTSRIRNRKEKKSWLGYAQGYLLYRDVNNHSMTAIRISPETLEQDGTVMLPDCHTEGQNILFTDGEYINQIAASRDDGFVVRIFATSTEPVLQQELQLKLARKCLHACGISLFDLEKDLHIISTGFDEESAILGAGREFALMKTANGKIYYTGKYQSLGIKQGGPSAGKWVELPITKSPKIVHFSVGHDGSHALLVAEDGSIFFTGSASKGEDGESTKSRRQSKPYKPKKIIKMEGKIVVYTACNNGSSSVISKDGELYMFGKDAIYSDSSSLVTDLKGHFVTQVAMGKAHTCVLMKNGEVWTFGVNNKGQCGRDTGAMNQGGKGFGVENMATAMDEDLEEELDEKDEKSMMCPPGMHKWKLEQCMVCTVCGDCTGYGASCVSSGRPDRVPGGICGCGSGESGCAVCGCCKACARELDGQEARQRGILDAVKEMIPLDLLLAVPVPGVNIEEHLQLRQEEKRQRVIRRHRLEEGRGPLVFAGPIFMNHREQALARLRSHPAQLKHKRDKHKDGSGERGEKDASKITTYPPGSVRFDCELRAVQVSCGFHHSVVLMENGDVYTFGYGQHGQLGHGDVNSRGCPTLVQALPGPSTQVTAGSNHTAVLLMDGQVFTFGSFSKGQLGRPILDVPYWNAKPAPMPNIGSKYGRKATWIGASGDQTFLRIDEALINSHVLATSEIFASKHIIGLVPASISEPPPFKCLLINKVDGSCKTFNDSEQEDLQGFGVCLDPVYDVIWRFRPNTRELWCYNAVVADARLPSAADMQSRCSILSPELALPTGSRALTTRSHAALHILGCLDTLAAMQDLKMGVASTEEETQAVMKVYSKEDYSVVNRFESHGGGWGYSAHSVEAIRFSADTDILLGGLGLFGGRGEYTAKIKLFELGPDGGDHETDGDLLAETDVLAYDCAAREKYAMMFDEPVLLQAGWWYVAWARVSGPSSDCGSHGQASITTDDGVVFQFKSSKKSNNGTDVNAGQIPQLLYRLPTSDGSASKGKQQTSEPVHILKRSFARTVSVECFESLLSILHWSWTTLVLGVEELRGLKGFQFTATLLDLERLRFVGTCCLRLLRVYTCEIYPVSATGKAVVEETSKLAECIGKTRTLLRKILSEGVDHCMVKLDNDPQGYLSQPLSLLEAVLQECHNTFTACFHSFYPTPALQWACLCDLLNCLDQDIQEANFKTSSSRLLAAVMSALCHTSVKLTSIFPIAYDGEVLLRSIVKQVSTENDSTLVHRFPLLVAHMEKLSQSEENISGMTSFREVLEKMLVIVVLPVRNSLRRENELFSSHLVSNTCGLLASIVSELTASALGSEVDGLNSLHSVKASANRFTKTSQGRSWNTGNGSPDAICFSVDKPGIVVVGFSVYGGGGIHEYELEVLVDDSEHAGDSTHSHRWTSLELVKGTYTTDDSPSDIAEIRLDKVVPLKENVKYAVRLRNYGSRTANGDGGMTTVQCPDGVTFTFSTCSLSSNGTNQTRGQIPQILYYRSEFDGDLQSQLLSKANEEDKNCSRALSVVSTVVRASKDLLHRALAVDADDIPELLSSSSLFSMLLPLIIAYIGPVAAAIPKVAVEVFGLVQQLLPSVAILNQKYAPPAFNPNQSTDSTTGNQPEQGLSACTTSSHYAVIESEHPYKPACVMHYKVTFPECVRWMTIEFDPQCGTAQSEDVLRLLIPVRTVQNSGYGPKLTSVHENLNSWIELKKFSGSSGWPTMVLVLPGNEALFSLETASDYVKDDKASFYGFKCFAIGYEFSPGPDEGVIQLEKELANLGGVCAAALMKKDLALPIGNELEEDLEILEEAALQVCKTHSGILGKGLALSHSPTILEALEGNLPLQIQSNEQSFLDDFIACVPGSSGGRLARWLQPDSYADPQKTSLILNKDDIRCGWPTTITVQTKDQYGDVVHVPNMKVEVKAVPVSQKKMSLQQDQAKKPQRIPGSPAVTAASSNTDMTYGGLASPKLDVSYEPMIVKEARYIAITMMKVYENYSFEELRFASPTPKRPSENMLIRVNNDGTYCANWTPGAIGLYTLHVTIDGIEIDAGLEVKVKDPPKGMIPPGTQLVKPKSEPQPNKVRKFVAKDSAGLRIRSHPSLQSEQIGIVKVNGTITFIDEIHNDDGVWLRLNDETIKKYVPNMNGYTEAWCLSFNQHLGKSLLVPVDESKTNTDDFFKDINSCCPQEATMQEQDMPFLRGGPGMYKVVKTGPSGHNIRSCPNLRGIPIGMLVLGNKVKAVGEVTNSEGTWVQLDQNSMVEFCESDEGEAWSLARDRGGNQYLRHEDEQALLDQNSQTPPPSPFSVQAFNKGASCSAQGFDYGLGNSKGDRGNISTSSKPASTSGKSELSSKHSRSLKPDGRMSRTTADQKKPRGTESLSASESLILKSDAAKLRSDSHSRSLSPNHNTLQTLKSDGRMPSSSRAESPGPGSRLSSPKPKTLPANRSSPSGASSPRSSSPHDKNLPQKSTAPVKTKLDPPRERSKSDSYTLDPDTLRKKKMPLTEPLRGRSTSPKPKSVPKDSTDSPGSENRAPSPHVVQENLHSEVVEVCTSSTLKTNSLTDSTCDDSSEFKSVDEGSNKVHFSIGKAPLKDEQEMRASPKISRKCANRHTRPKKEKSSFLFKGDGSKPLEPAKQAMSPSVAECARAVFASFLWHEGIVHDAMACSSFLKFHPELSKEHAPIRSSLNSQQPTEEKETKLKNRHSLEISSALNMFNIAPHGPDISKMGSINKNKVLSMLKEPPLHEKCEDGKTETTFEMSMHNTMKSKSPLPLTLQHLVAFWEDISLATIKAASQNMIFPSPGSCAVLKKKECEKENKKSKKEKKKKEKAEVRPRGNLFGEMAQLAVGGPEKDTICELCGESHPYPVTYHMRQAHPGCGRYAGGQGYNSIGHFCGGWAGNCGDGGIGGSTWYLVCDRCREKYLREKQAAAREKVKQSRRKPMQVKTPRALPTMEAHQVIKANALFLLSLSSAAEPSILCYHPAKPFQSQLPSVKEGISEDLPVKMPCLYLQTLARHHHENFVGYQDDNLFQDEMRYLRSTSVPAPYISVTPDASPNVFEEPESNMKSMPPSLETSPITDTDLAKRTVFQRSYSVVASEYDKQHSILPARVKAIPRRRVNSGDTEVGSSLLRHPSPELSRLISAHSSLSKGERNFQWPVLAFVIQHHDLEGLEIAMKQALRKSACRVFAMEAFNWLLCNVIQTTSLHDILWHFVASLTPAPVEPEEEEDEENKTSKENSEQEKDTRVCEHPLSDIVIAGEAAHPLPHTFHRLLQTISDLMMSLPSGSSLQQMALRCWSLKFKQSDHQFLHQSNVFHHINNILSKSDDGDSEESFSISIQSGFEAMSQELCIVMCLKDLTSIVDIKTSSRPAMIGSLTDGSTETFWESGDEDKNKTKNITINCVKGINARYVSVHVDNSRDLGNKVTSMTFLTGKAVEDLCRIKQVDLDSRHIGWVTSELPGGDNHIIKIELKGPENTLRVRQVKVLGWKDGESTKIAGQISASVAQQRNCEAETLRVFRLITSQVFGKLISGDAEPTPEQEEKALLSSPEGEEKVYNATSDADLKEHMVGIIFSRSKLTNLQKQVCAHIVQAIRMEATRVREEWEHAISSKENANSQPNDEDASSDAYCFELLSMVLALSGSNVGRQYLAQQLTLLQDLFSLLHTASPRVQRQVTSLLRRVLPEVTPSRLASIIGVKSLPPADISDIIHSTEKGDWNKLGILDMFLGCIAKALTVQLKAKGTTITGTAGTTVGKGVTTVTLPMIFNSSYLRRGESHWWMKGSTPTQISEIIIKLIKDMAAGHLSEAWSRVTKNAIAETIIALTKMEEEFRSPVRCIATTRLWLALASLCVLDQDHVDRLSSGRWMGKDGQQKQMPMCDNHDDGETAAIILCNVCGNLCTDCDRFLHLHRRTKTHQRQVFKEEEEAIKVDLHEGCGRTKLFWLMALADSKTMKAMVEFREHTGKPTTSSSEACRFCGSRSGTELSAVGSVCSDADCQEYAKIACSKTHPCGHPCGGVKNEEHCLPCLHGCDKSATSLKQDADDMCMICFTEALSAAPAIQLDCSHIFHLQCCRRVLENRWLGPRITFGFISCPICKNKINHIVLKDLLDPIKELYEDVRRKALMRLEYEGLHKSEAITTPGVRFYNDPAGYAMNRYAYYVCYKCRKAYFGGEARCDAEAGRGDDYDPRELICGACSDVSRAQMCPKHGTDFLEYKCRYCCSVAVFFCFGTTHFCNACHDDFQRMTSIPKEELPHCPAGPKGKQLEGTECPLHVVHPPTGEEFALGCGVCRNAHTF
UniProt Q9Y6C9: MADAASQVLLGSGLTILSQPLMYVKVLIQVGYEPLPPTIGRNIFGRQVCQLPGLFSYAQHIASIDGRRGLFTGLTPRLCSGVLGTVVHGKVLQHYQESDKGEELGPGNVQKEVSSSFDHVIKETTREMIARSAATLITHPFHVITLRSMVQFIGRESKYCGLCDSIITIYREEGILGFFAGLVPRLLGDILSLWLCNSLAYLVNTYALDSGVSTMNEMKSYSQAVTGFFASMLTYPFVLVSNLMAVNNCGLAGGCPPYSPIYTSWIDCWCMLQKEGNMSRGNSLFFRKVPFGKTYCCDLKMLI
UniProt Q99417: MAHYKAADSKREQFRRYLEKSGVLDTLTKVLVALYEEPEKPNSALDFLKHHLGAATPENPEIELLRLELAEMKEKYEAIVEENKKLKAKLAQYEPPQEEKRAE
UniProt P60660, whole entry, looked up: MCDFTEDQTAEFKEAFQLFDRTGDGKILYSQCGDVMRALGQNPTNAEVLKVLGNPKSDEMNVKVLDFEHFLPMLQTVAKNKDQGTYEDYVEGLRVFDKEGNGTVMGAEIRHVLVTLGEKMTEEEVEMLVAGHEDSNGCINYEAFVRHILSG

ibrutinib = compound: C=CC(=O)N1CCC[C@@H](n2nc(-c3ccc(Oc4ccccc4)cc3)c3c(N)ncnc32)C1 [ibrutinib]
Method in brief: as §1

[1] = compound: CC(=O)c1cnc2ccc(-c3cc(Cl)c(O)c(Cl)c3)nc2c1N[C@H]1CC[C@H](CN(C)C)CC1
Method in brief: as §1

ralimetinib = compound: CC(C)(C)Cn1c(N)nc2ccc(-c3[nH]c(C(C)(C)C)nc3-c3ccc(F)cc3)nc21 [ralimetinib]
Method in brief: as §1

[2] = compound: CC(C)(O)CC(=O)NCCn1ccc2ncnc(Nc3ccc(Oc4cccc(C(F)(F)F)c4)c(Cl)c3)c21
Method in brief: as §1

[3] = compound: CC(C)C1=C2N=C(C=C(N2N=C1)NCC3=CC=CC=C3)NCCCCCCN
Method in brief: as §1

[4] = compound: CC(C)C[C@@H](C=O)NC(=O)[C@H](CC(C)C)NC(=O)[C@H](CC(C)C)NC(=O)OCc1ccccc1
Method in brief: as §1

pinometostat = compound: CC(C)N(C[C@H]1O[C@@H](n2cnc3c(N)ncnc32)[C@H](O)[C@@H]1O)[C@H]1C[C@@H](CCc2nc3cc(C(C)(C)C)ccc3[nH]2)C1 [pinometostat]
Method in brief: as §1

[5] = compound: CC1=C(C(CC(=O)N1)C2=CC=C(C=C2)C(F)(F)F)C(=O)NC3=C(C=C4C(=C3)C=NN4)F
Method in brief: as §1

[6] = compound: CC1=C(C2=C(C=C1)C(=O)C3=CC=CC=C3N2CCCN)C
Method in brief: as §1

[7] = compound: CC1=C(C=C(C=C1)NC(=O)C2=CC(=CC=C2)C(C)(C)C#N)NC3=CC4=C(C=C3)N=CN(C4=O)C
Method in brief: as §1

[8] = compound: CC1=C(C=C(C=C1)NC(=O)C2=CC(=CC=C2)N(C)C)NC(=O)C3=CC=C(C=C3)O
Method in brief: as §1

[9] = compound: CC1=CC=C(C=C1)SC2=C3C=C(SC3=CN=C2)C(=O)N
Method in brief: as §1

[10] = compound: CC1=NC(=CC=C1)C2=C(N=C(N2)C(C)(C)C)C3=CC4=NC=CN=C4C=C3
Method in brief: as §1

Nexturastat A = compound: CCCCN(Cc1ccc(C(=O)NO)cc1)C(=O)Nc1ccccc1 [Nexturastat A]
Method in brief: as §1

vemurafenib = compound: CCCS(=O)(=O)Nc1ccc(F)c(C(=O)c2c[nH]c3ncc(-c4ccc(Cl)cc4)cc23)c1F [vemurafenib]
Method in brief: as §1

[11] = compound: CCCS(=O)(=O)Nc1ccc(F)c(C(=O)c2c[nH]c3ncc(Cl)cc23)c1F
Method in brief: as §1

[12] = compound: CCCc1cc(C)[nH]c(=O)c1CNC(=O)c1cc(-c2ccnc(N3CCN(C)CC3)c2)cc2c1cnn2C(C)C
Method in brief: as §1

givinostat = compound: CCN(CC)Cc1ccc2cc(COC(=O)Nc3ccc(C(=O)NO)cc3)ccc2c1 [givinostat]
Method in brief: as §1

barasertib = compound: CCN(CCCOc1ccc2c(Nc3cc(CC(=O)Nc4cccc(F)c4)[nH]n3)ncnc2c1)CCOP(=O)(O)O [barasertib]
Method in brief: as §1

Measured: log2 fold change

MRTFB isoform 5 (UniProt Q9ULH7)
inactive: IRAK-1-4 Inhibitor I -0.034 | ibrutinib 0.003 | [1] 0 | ralimetinib -0.047 | [2] -0.023 | [3] 0.015 | [4] 0.052 | pinometostat -0.035 | [5] 0.003 | [6] 0.027 | [7] 0.008 | [8] 0.021 | [9] 0.015 | [10] 0.035 | Nexturastat A -0.021 | vemurafenib 0.017 | [11] 0.015 | [12] 0.111 | givinostat 0.023 | barasertib 0.017

MT-ND1 (UniProt P03886)
inactive: IRAK-1-4 Inhibitor I 0.104 | ibrutinib -0.009 | [1] -0.072 | ralimetinib 0.071 | [2] -0.142 | [3] -0.142 | [4] -0.102 | pinometostat -0.092 | [6] 0.119 | [7] -0.002 | [8] 0.028 | [9] -0.008 | [10] -0.034 | Nexturastat A 0.021 | vemurafenib 0.168 | [11] 0.208 | [12] 0.019 | givinostat 0.057 | barasertib 0.127

MRPS11 (UniProt P82912)
inactive: IRAK-1-4 Inhibitor I -0.085 | ibrutinib 0.03 | [1] -0.037 | ralimetinib -0.033 | [2] -0.049 | [3] -0.088 | [4] -0.041 | pinometostat 0.041 | [5] 0.036 | [6] -0.071 | [7] 0.025 | [8] -0.079 | [9] -0.048 | [10] -0.142 | Nexturastat A -0.054 | vemurafenib 0.035 | [11] -0.061 | [12] -0.011 | givinostat 0.009 | barasertib 0.14

MTSS2 (UniProt Q765P7)
inactive: IRAK-1-4 Inhibitor I 0.092 | ibrutinib -0.048 | [1] -0.011 | ralimetinib -0.01 | [2] -0.005 | [3] -0.024 | [4] 0.02 | pinometostat 0.044 | [5] 0.066 | [6] 0.104 | [7] -0.065 | [8] 0.008 | [9] -0.038 | [10] -0.04 | Nexturastat A -0.051 | vemurafenib 0.037 | [11] -0.106 | [12] 0.022 | givinostat -0.044 | barasertib -0.007

MYCBP2 (UniProt O75592)
inactive: IRAK-1-4 Inhibitor I 0.137 | ibrutinib 0.134 | [1] -0.016 | ralimetinib -0.078 | [2] 0.108 | [3] 0.073 | [4] 0.296 | pinometostat -0.028 | [5] -0.001 | [6] -0.134 | [7] -0.191 | [8] 0.36 | [9] 0.019 | [10] -0.192 | Nexturastat A 0.582 | vemurafenib -0.158 | [11] -0.032 | [12] -0.327 | givinostat 0.078 | barasertib -0.167

MRPS22 (UniProt P82650)
inactive: IRAK-1-4 Inhibitor I -0.027 | ibrutinib 0.051 | [1] -0.02 | ralimetinib 0.017 | [2] -0.102 | [3] -0.11 | [4] 0.04 | pinometostat 0.007 | [6] -0.175 | [7] 0.041 | [8] -0.029 | [9] 0.022 | [10] -0.018 | Nexturastat A 0.092 | vemurafenib -0.024 | [11] 0.037 | [12] 0.049 | givinostat 0.032 | barasertib -0.055

MTR (UniProt Q99707)
inactive: IRAK-1-4 Inhibitor I -0.065 | ibrutinib -0.022 | [1] 0.003 | ralimetinib 0.115 | [2] -0.014 | [3] -0.233 | [4] 0.131 | pinometostat 0.185 | [5] -0.083 | [6] -0.014 | [7] 0.062 | [8] 0.006 | [9] 0.013 | [10] -0.062 | Nexturastat A 0.158 | vemurafenib 0.033 | [11] 0.004 | [12] 0.071 | givinostat 0.026 | barasertib 0.047

MTMR2 (UniProt Q13614)
inactive: IRAK-1-4 Inhibitor I -0.03 | ibrutinib 0.001 | [1] 0 | ralimetinib -0.091 | [2] 0.048 | [3] 0.007 | [4] 0.057 | pinometostat -0.037 | [5] 0.011 | [6] -0.002 | [7] 0.013 | [8] 0.009 | [9] -0.024 | [10] 0.031 | Nexturastat A 0.008 | vemurafenib -0.013 | [11] 0.029 | [12] -0.081 | givinostat -0.065 | barasertib -0.007

MRPS30 (UniProt Q9NP92)
inactive: IRAK-1-4 Inhibitor I -0.054 | ibrutinib 0.022 | [1] 0.087 | ralimetinib 0.083 | [2] 0.029 | [3] 0.046 | [4] -0.038 | pinometostat 0.167 | [5] 0.027 | [6] -0.078 | [7] 0.042 | [8] -0.038 | [9] -0.051 | [10] -0.06 | Nexturastat A 0.13 | vemurafenib -0.032 | [11] -0.047 | [12] 0.091 | givinostat -0.036 | barasertib -0.108

MRPS6 (UniProt P82932)
inactive: IRAK-1-4 Inhibitor I -0.193 | ibrutinib -0.007 | [1] -0.079 | ralimetinib 0.012 | [2] -0.158 | [3] -0.003 | [4] -0.009 | pinometostat -0.007 | [6] -0.139 | [7] 0.081 | [8] -0.052 | [9] 0.006 | [10] 0.128 | Nexturastat A 0.076 | vemurafenib 0.1 | [11] 0.059 | [12] 0.062 | givinostat 0.037 | barasertib -0.017

MYBBP1A isoform 2 (UniProt Q9BQG0)
inactive: IRAK-1-4 Inhibitor I -0.198 | ibrutinib -0.105 | [1] -0.262 | ralimetinib -0.04 | [2] -0.001 | [3] -0.271 | [4] 0.041 | pinometostat 0.666 | [5] 0.067 | [6] -0.337 | [8] 0.091 | [10] -0.02 | Nexturastat A 0.432 | givinostat 0.277 | barasertib -0.028

MTG1 (UniProt Q9BT17)
inactive: IRAK-1-4 Inhibitor I 0.078 | ibrutinib -0.019 | [1] -0.091 | ralimetinib -0.057 | [2] 0.26 | [3] 0.065 | [4] 0.047 | pinometostat 0.029 | [5] 0.067 | [6] 0 | [8] -0.195 | [9] -0.051 | [10] 0.25 | Nexturastat A -0.271 | vemurafenib 0.133 | [11] 0.013 | [12] 0.062 | givinostat 0.032 | barasertib 0.043

MTCH2 (UniProt Q9Y6C9)
inactive: IRAK-1-4 Inhibitor I 0.074 | ibrutinib 0.031 | [1] -0.028 | ralimetinib -0.051 | [2] 0.023 | [3] -0.015 | [4] -0.017 | pinometostat -0.001 | [5] 0.026 | [6] 0.005 | [7] 0.011 | [8] 0.016 | [9] 0.021 | [10] -0.023 | Nexturastat A -0.133 | vemurafenib -0.066 | [11] -0.006 | [12] -0.087 | givinostat -0.029 | barasertib -0.02

MYCBP (UniProt Q99417)
inactive: IRAK-1-4 Inhibitor I 0.035 | ibrutinib -0.021 | [1] -0.014 | ralimetinib -0.166 | [2] 0.012 | [3] 0.053 | [4] 0.06 | pinometostat -0.041 | [5] 0.019 | [6] 0.049 | [7] -0.016 | [8] 0.004 | [9] 0 | [10] -0.007 | Nexturastat A -0.003 | vemurafenib 0 | [11] -0.058 | [12] 0.147 | givinostat 0.012 | barasertib 0

Two entries drawn at random from the list so far:
MT-ND1 (UniProt P03886)
inactive: IRAK-1-4 Inhibitor I 0.104 | ibrutinib -0.009 | [1] -0.072 | ralimetinib 0.071 | [2] -0.142 | [3] -0.142 | [4] -0.102 | pinometostat -0.092 | [6] 0.119 | [7] -0.002 | [8] 0.028 | [9] -0.008 | [10] -0.034 | Nexturastat A 0.021 | vemurafenib 0.168 | [11] 0.208 | [12] 0.019 | givinostat 0.057 | barasertib 0.127

MTR (UniProt Q99707)
inactive: IRAK-1-4 Inhibitor I -0.065 | ibrutinib -0.022 | [1] 0.003 | ralimetinib 0.115 | [2] -0.014 | [3] -0.233 | [4] 0.131 | pinometostat 0.185 | [5] -0.083 | [6] -0.014 | [7] 0.062 | [8] 0.006 | [9] 0.013 | [10] -0.062 | Nexturastat A 0.158 | vemurafenib 0.033 | [11] 0.004 | [12] 0.071 | givinostat 0.026 | barasertib 0.047

Additional entries:

MTA2 (UniProt O94776)
inactive: IRAK-1-4 Inhibitor I -0.076 | ibrutinib -0.024 | [1] -0.126 | ralimetinib 0.049 | [2] -0.043 | [3] -0.166 | [4] 0.017 | pinometostat 0.024 | [5] -0.015 | [6] 0.02 | [7] 0.054 | [8] -0.047 | [9] -0.009 | [10] 0.025 | Nexturastat A -0.039 | vemurafenib 0.013 | [11] 0.043 | [12] 0.175 | givinostat 0.191 | barasertib 0.064

MRTFA (UniProt Q969V6)
inactive: IRAK-1-4 Inhibitor I 0.102 | ibrutinib -0.02 | [1] 0.049 | ralimetinib -0.055 | [2] -0.103 | [3] -0.101 | [4] 0.062 | pinometostat -0.049 | [5] 0.159 | [6] -0.015 | [7] 0.011 | [8] -0.096 | [9] -0.036 | [10] 0.06 | Nexturastat A -0.018 | vemurafenib -0.148 | [11] 0.032 | [12] 0.032 | givinostat 0.045 | barasertib -0.02

MYL6 isoform 2 (UniProt P60660)
inactive: IRAK-1-4 Inhibitor I 0.023 | ibrutinib 0.013 | [1] 0.008 | ralimetinib -0.013 | [2] -0.021 | [3] -0.061 | [4] 0.002 | pinometostat -0.045 | [5] 0.018 | [6] -0.016 | [7] 0.031 | [8] -0.018 | [9] -0.022 | [10] 0.05 | Nexturastat A 0.03 | vemurafenib 0 | [11] -0.014 | [12] -0.021 | givinostat 0.024 | barasertib 0.086

— the supplement of paper PMC10849652
